Experimental data taken from paper PMC7099064.
No constants are given. Whether binding was seen depends on the method and setting. Binding seen in cells or lysates may run through a third protein. Some results given as binding are weak or reduced against the parent protein; the word gives no strength.

Chains of the proteins cited; added tags and fusions are not shown.
UniProt Q13526: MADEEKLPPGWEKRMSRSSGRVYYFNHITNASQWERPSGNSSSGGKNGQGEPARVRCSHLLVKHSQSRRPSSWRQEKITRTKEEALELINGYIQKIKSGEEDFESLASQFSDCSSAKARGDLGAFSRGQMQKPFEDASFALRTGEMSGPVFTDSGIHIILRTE

Biological target: GST-Pin1 (UniProt Q13526)
Assay: pull-down; GST or GST-Pin1-linked beads incubated with brain lysates from WT or Kv4.2TA mice given saline or PTZ; blot for Kv4.2; only the target purified

B1: Kv4.2, endogenous in mouse brain and cultured mouse neurons (protein, UniProt Q9Z0V2 1-630)
chain: MAAGVAAWLPFARAAAIGWMPVASGPMPAPPRQERKRTQDALIVLNVSGTRFQTWQDTLERYPDTLLGSSERDFFYHPETQQYFFDRDPDIFRHILNFYRTGKLHYPRHECISAYDEELAFFGLIPEIIGDCCYEEYKDRRRENAERLQDDADTDNTGESALPTMTARQRVWRAFENPHTSTMALVFYYVTGFFIAVSVIANVVETVPCGSSPGHIKELPCGERYAVAFFCLDTACVMIFTVEYLLRLAAAPSRYRFVRSVMSIIDVVAILPYYIGLVMTDNEDVSGAFVTLRVFRVFRIFKFSRHSQGLRILGYTLKSCASELGFLLFSLTMAIIIFATVMFYAEKGSSASKFTSIPAAFWYTIVTMTTLGYGDMVPKTIAGKIFGSICSLSGVLVIALPVPVIVSNFSRIYHQNQRADKRRAQKKARLARIRAAKSGSANAYMQSKRNGLLSNQLQSSEDEPAFISKSGSSFETQHHHLLHCLEKTTNHEFVDEQVFEESCMEVATVNRPSSHSPSLSSQQGVTSTCCSRRHKKTFRIPNANVSGSHRGSVQELSTIQIRCVERTPLSNSRSSLNAKMEECVKLNCEQPYVTTAIISIPTPPVTTPEGDDRPESPEYSGGNIVRVSAL
**Q.** How did the binding turn out when B1 was run?
**A.** binds
